The assay can be described thus: qHTS Assay to Find Inhibitors of Chronic Active B-Cell Receptor Signaling. The conditions noted are these: ABC-DLBCL IkBa-CBG/CBR reporter, luminescence ratio (green luciferase fused to IkBa over red control in TMD8 lymphoma cells), 4 h. The essentials: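 TMD8 ABC-DLBCL cells carrying doxycycline-inducible green luciferase fused to IkappaBalpha plus unfused red luciferase were exposed to compounds (up to 46 uM) for 4 hrs at 37C. Activity came from the overlap-corrected green/red luminescence ratio.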

The mark [1] stands for this setting: measured here: CBR red luminescence, cell number.

The list shows a part of the results. Further columns of the screen follow, without active or inactive calls. Compounds called inactive in the main read-out are mostly missing here. Words in brackets tell the shape of the fitted curve; partial curves, single points and poor fits give uncertain potencies. Peptide text beside a SMILES is read from it. * marks the point of attachment. Cbz = O=C(OCc1ccccc1)*

Take `O=C(COc1ccc(C(=O)c2ccccc2)cc1)NCC(=O)Nc1ccccc1Br`: the concentration at half-maximal activity (AC50) under setting [1] was 5.17 µM [rising, single point].
The same measure, in the same setting: with `CCN(C(=O)COC(=O)c1cc(Cl)ccc1OC)c1c(N)n(Cc2ccccc2)c(=O)[nH]c1=O` the figure was 29.1 µM [rising, single point].
`O=C1c2ccccc2NC(c2cn[nH]c2-c2ccc(Cl)cc2)N1O` (configuration not stated): the AC50 under setting [1] was 2.06 µM [falling, full curve].
Still for that read-out and setting: to `COc1ccccc1NS(=O)(=O)c1cc(NC(=O)Cc2n[nH]c(=O)c3ccccc23)ccc1Cl` belongs 18.4 µM [falling, partial curve, poor fit].
The same measure, in the same setting: to `CCOC(=O)CCSc1nnc(-c2cccnc2)n1-c1ccccc1OC` belongs 8.2 µM [falling, partial curve]; to `CCc1ccc(OCCn2cccn2)cc1`, 3.98 µM [rising, full curve, poor fit].
As to `COc1ccc(OC)c(/C=N/Nc2nncn2/N=C/c2cc(OC)ccc2OC)c1`, under setting [1], the AC50 was 32.6 µM [falling, partial curve, poor fit].
On the same count and under the same terms, with `CCCc1ccc(OC(=O)c2ccc(O)cc2Cl)cc1` the figure was 3.98 µM [falling, partial curve]; with `Cc1cc(C)c2sc(NC(=O)C3=COCCO3)nc2c1`, 3.98 µM [falling, full curve, poor fit]; with `CCN(CC(=O)NCc1ccc(Cl)cc1)C(=O)c1ccc(S(=O)(=O)NCc2ccco2)cc1`, 17.8 µM [falling, single point].
On the same count and under the same terms, to `NS(=O)(=O)c1ccc2nc(NC(=O)c3ccc4ncsc4c3)sc2c1` belongs 3.98 µM [falling, partial curve]; to `COc1ccc(C(C(=O)NC2CCCC2)N(C(=O)c2snc(-c3ccc(F)cc3)c2N)c2cccc(F)c2)cc1` (configuration not stated), 6.51 µM [rising, single point].
Still for that read-out and setting: with `Cc1ccc(-c2cc(-c3ccc(F)cc3)c(C#N)c(N)n2)o1` the figure was 2.06 µM [falling, full curve, poor fit]; with `CC(C)C(=O)Nc1ncc(Cc2ccccc2Cl)s1`, 6.31 µM [rising, single point]; with `COc1ccc(S(=O)(=O)NC(C)C(=O)Nc2ccccc2F)cc1` (configuration not stated), 35.5 µM [falling, single point].
In the case of `Cc1ccc(C)c(C(=O)CN2C(=O)NC3(CCCCCC3)C2=O)c1`, the AC50 under setting [1] was 0.517 µM [rising, full curve, poor fit].
On the same count and under the same terms, with `O=C(Nc1ccccn1)c1nc(-c2ccccc2)n(-c2ccccc2)n1` the figure was 6.51 µM [falling, single point].
Still for that read-out and setting: with `Cc1cc(Cl)c2oc(C(=O)N3CCCCC3CCN3CCCC3=O)c(C)c2c1` (configuration not stated) the figure was 17.8 µM [falling, single point]; with `Cc1ccc(COc2ccc(C)nc2[N+](=O)[O-])cc1`, 17.8 µM [rising, partial curve, poor fit].
The same measure, in the same setting: to `CCc1ccc(OCc2ccc(C(=O)O)o2)cc1` belongs 6.31 µM [falling, partial curve]; to `Cc1ccc(NC(=O)COC(=O)Cc2c[nH]c3ccccc23)cc1F`, 14.6 µM [falling, partial curve].
Regarding `Cc1c(CNCCc2ccccc2)c(C(=O)O)c(C)n1-c1ccccc1`, under setting [1], the AC50 is 22.4 µM [falling, single point].
The same measure, in the same setting: to `COc1ccc(-c2cc(C(F)(F)F)n3nc(C(=O)Nc4cc(C)on4)cc3n2)cc1OC` belongs 2.59 µM [rising, full curve, poor fit]; to `Cc1ccc(OCc2ccc(C(=O)O)o2)c([N+](=O)[O-])c1`, 18.4 µM [falling, single point]; to `CC(C)c1ccc(NC(=O)NCc2ccc(F)cc2)cc1`, 0.562 µM [rising, full curve, poor fit].
Consider `Cc1ccc(S(=O)(=O)CCC(=O)O)cc1C`, for which, under setting [1], the AC50 is 20.6 µM [rising, single point].
Still for that read-out and setting: to `COc1cc2c(cc1OC)/C(=C/c1ccc(Cl)cc1)C(=O)OC2` belongs 14.1 µM [falling, single point]; to `COc1ccc(OCc2cccc(C(=O)Nc3cc(C)on3)c2)cc1`, 18.4 µM [falling, partial curve, poor fit]; to `COc1cc(CC(=O)Nc2sc3c(c2C(N)=O)CCCC3)cc(OC)c1OC`, 5.01 µM [rising, single point].
For `O=C(O)CCn1cc(-c2ccc(Cl)cc2)nc1-c1ccncc1`, the AC50 is 6.51 µM [rising, single point] under setting [1] and 6.51 µM [falling, single point] (measured here: IkBa-CBG green luminescence).
Take `O=[N+]([O-])c1cccc(Cl)c1NCCNS(=O)(=O)c1ccccc1`: the AC50 under setting [1] is 6.31 µM [rising, partial curve, poor fit].
`Cc1nc2ccccc2c(=O)n1NCc1cccs1`: the AC50 under setting [1] is 20 µM [falling, partial curve, poor fit].
For the molecule `Fc1cccc(/C=N/Nc2nncc3ccccc23)c1`, the AC50 under setting [1] is 6.31 µM [falling, full curve].
Still for that read-out and setting: to `CSc1ncccc1C(=O)NCC1CCCCC1` belongs 2.24 µM [rising, full curve, poor fit].
With `Cn1c(-c2ccc3c(c2)OCO3)cnc1NCc1cccc(O)c1`, the AC50 under setting [1] is 35.5 µM [falling, single point].
Regarding `O=C(COC(=O)/C=C/c1ccc(OC(F)F)cc1)NCc1cccs1`, the AC50 under setting [1] is 0.731 µM [rising, full curve, poor fit].
Same read-out and setting: to `Cc1c(O)ccc(NC(=O)/C=C/c2ccccc2)c1C` belongs 11.2 µM [falling, partial curve]; to `CC(NC(=O)COC(=O)c1cccc(S(=O)(=O)N2CCCC2)c1)c1ccccc1` (configuration not stated), 23.1 µM [rising, single point]; to `CC(=O)c1ccc(CCCCCCCCCC(=O)O)s1`, 11.2 µM [falling, partial curve, poor fit].
For the molecule `CC(NC(=O)CNC(=O)C(Cc1ccccc1)NC(=O)OCc1ccccc1)C(N)=O` (stereo not drawn) (Cbz-Phe-Gly-Ala-NH2; configuration not given here), the AC50 under setting [1] is 2.24 µM [rising, full curve].
In the case of `CN(C)c1ccc(NC(=O)CSc2nc(N)c(C(=O)Nc3ccc(N(C)C)cc3)s2)cc1`, the AC50 under setting [1] is 5.62 µM [falling, partial curve].

The values above are taken from PubChem BioAssay AID493014 (National Center for Advancing Translational Sciences (NCATS), 2011).
